Measurements taken from article PMC4482279.
These are yes or no findings as the source states them, for the method shown. In cells and extracts the contact can be indirect. Some entries that bind do so weakly or less than the wild type. Tags and fused reporters may be left off the sequences shown.

Target: tyrosine phosphorylated epidermal growth factor receptor (pEGFR) in EGF-stimulated A431 cell lysate (human (endogenous in A431)) (UniProt P00533)
Test: proximity ligation; SH2-PLA Method 1, in solution: cell or tissue lysate premixed with anti-EGFR 3' Prox-Oligo probe (0.5 nM), GST-domain (0.1 μg/ml) premixed with anti-GST 5' Prox-Oligo probe (0.5 nM), each 1.5 h at 4 °C, then combined 1.5 h at 4 °C; ligation and real-time PCR (Ct); lysates of cells with or without EGF stimulation; only the binder purified

- binding: binds
B1: GST-Vav2 SH2 (665-774) (domain or fragment, UniProt P52735 665-774)
chain: EIDYTAYPWFAGNMERQQTDNLLKSHASGTYLIRERPAEAERFAISIKFNDEVKHIKVVEKDNWIHITEAKKFDSLLELVEYYQCHSLKESFKQLDTTLKYPYKSRERSA
